# Assay results: publication PMC5340868 (mBio, 2017)
# No constants are given. Whether binding was seen depends on the method and setting. In cells and extracts the contact can be indirect. Some binding calls cover weakened binding; strength is not graded here. Sequences can lack the tags named with a protein.
# B1: Rv3167c, M-PFC fusion proteins (from pUAB300 and pUAB400) (protein, UniProt O53317 1-208)
# chain: MKADLPSLDKAPGAGRPRDPRIDSAILSATAELLVQIGYSNLSLAAVAERAGTTKSALYRRWSSKAELVHEAAFPAAPTALQAAAGDIAADIRMMIAATRDVFTTPVVRAALPGLVADMTADAELNARVLARFADLFAAVRMRLREAVDRGEAHPDVDPDRLIELIGGATMLRMLLYPDDMLDDAWVDQTTAIVVRGVHRAAPGGSVV
# Target: Rv3167c, M-PFC fusion proteins (from pUAB300 and pUAB400) (Mycobacterium tuberculosis) (UniProt O53317)
# Assay: split reporter
binder,measurement,value
B1,binding,binds
